PubChem BioAssay AID1259314, Drosophila RNAi Screening Center, 2017
Screen: 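Modifiers of manganese chloride toxicity in fly cells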 (primary screen). Cell system: Drosophila S2R+ cells. Reagent: long dsRNA against Drosophila genes. Time to read-out: 5 days (4 days knock-down, then 1 day metal exposure). Conditions: manganese chloride added to 15 mM for 24 hours. Measured: 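Luciferase ATP signal used as a proxy for viable cell number, reported as one averaged z-score per dsRNA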. Reading the numbers: mean ATP z-score: higher = more ATP than the plate average, more viable cells under manganese. Active means: 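a mean ATP z-score past 1.5 in either direction is called active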. Calls: active = strong ATP change, up or down; inactive = no strong ATP change.
Shown is one part, drawn at random, of about 3,100 deposited reagents. In the full data, 289 (9.3%) were called active. 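Active includes both higher and lower ATP than plate average; check the z-score sign for direction.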 A plus sign joins genes that one reagent is predicted to hit. Not stated in the record: the amount of reagent.

predicted target | DRSC id | mean ATP z-score | Call
Amnionless (GeneID 33199) | DRSC00317 | 0.14 | inactive
SIFaR (GeneID 42530) | DRSC13467 | -0.349 | inactive
SIFaR (GeneID 42530) | DRSC14266 | 0.258 | inactive
Ranbp21 (GeneID 32970) | DRSC19447 | -0.522 | inactive
Ranbp21 (GeneID 32970) | DRSC39764 | -0.308 | inactive
Or23a (GeneID 33450) | DRSC00767 | 0.449 | inactive
Or23a (GeneID 33450) | DRSC39706 | 1.07 | inactive
VAChT + ChAT | DRSC13312 | 0.287 | inactive
SiaT (GeneID 37950) | DRSC04494 | -0.394 | inactive
SiaT (GeneID 37950) | DRSC39665 | -0.699 | inactive
nompC (GeneID 33768) | DRSC03581 | -1.04 | inactive
nompC (GeneID 33768) | DRSC39807 | -0.292 | inactive
CG5262 (GeneID 40258) | DRSC11773 | -0.084 | inactive
CG5262 (GeneID 40258) | DRSC39543 | 0.148 | inactive
DopEcR (GeneID 38539) | DRSC08529 | -0.662 | inactive
Or74a (GeneID 39929) | DRSC11245 | -1.04 | inactive
CG7084 (GeneID 42606) | DRSC16194 | 1.1 | inactive
CG7084 (GeneID 42606) | DRSC39839 | -0.405 | inactive

The list goes on; the last 3 above are carried over.
predicted target | DRSC id | mean ATP z-score | Call
Or74a (GeneID 39929) | DRSC11245 | -1.04 | inactive
CG7084 (GeneID 42606) | DRSC16194 | 1.1 | inactive
CG7084 (GeneID 42606) | DRSC39839 | -0.405 | inactive
por (GeneID 32818) | DRSC29877 | 0.314 | inactive
por (GeneID 32818) | DRSC39827 | 0.319 | inactive
CG17991 (GeneID 43279) | DRSC15294 | 0.555 | inactive
N (GeneID 31293) | DRSC18685 | 0.318 | inactive
N (GeneID 31293) | DRSC37611 | 0.335 | inactive
Shab (GeneID 38352) | DRSC08013 | 0.139 | inactive
Shab (GeneID 38352) | DRSC08699 | -0.891 | inactive
hec (GeneID 32246) | DRSC19895 | -0.408 | inactive
hec (GeneID 32246) | DRSC39722 | -0.488 | inactive
Psn (GeneID 40260) | DRSC11743 | 0.203 | inactive
CG7536 (GeneID 32786) | DRSC20050 | 0.0494 | inactive
CG7536 (GeneID 32786) | DRSC39596 | -0.46 | inactive
Or98b (GeneID 43375) | DRSC21751 | -0.363 | inactive
CG30379 (GeneID 246578) | DRSC05070 | -0.0617 | inactive
CG30379 (GeneID 246578) | DRSC39783 | -0.0115 | inactive
Gr36b (GeneID 117487) | DRSC21637 | 0.287 | inactive
Gr36b (GeneID 117487) | DRSC29818 | 0.482 | inactive
Balat + asRNA:CR43469 | DRSC06852 | -0.156 | inactive
Balat + asRNA:CR43469 | DRSC39492 | -0.359 | inactive
CG8837 (GeneID 33545) | DRSC00711 | 0.0816 | inactive
CG8837 (GeneID 33545) | DRSC29440 | -0.494 | inactive
Gr59d (GeneID 117343) | DRSC22553 | -0.137 | inactive
Gr59d (GeneID 117343) | DRSC39897 | 0.329 | inactive
Cad99C (GeneID 43528) | DRSC15050 | 0.0977 | inactive
Cad99C (GeneID 43528) | DRSC16317 | 0.204 | inactive
CG8008 (GeneID 35935) | DRSC07053 | -1.45 | inactive
CG8008 (GeneID 35935) | DRSC39472 | 0.283 | inactive
